Data reported in PubChem BioAssay AID1347076 (National Center for Advancing Translational Sciences (NCATS), 2019).
Hit rate of the full screen: of about 400,000 compounds, about 13,000 (3.2%) were called active. Inconclusive means that the source gave no clear call. Such entries were picked first, then a sample of the others. The call rests on the fitted dose curve; in most records, active means well fitted cell-killing curve with a large enough effect; inconclusive means small, poorly fitted or top-dose-only effect, or effect the other way; inactive means flat fitted curve, though single readings scatter. A potency beside an inconclusive call is a rough fit, not a confirmed value.

Test: qHTS assay for MDR1-selective chemotherapeutics: Primary screen using the drug-selected MDR subline cells KB-V1; further: nearly all actives have a fitted effect of over 60% in size
Conditions: KB-V1 MDR cells viability, CellTiter-Glo, 72 h; activity change, negative = cytotoxicity: at 46.1 µM (top of the series)
In short: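 KB-V1 cells (P-gp-expressing MDR subline of KB-3-1) in phenol-red-free DMEM with 10% FBS were exposed to library compounds over a concentration series for 72 h at 37 degrees C. Viability read by CellTiter-Glo luminescence; concentration-effect curves fitted after normalization.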
On the % scale 0 is the no-effect control and ±100 the full control effect; potency means the concentration at half of the fitted maximal effect.

Structure (SMILES)	activity change, negative = cytotoxicity	Potency
Cc1ccc(S(=O)(=O)Nc2cc3c4c(c2)CCC(=O)N4CCC3)cc1	inactive: -25.1%	
COc1cccc(N(CC(=O)NCCSc2ccc(Cl)cc2)S(C)(=O)=O)c1		active: 16.4 µM
C=CCn1c(SCc2csc(C)n2)nc2sc3c(c2c1=O)CCCCC3	inactive: -7.94%	
CC(=O)NC(c1ccc(C)cc1)c1cc([N+](=O)[O-])c2cccnc2c1O (stereo unspecified)		inconclusive: 3.26 µM [cytotoxic, partial curve, poor fit]
Cn1c(=O)c2c(ncn2CC(=O)Nc2cccc(C(F)(F)F)c2)n(C)c1=O	inconclusive: -22.1%	
Cc1cccc(NC(=O)c2nc[nH]c2C(=O)N[C@@H](CCCCNC(=O)OC(C)(C)C)C(=O)OC(C)(C)C)c1		inconclusive: 18.4 µM [cytotoxic, single point]
CCOCCCN1C(=O)CN(C2CCCCCC2)C(=O)C1c1ccc(OC)cc1 (stereo unspecified)		inconclusive: 0.355 µM [cytotoxic, full curve, poor fit]
C[C@@H]1CN([C@H](C)CO)C(=O)Cc2cc(NS(=O)(=O)c3ccc(Cl)cc3)ccc2O[C@H]1CN(C)Cc1ccc(C(F)(F)F)cc1		inconclusive: 29.1 µM [cytotoxic, single point]
CCN1CC=C2C(C#N)=C(N)C(C#N)(C#N)[C@H](c3cccc(OC)c3OC)[C@H]2C1	inactive: 19.2%	
Cc1ccc(NC(=O)c2ccc(NCCN)c([N+](=O)[O-])c2)cc1Cl		inconclusive: 29.1 µM [cytotoxic, partial curve, poor fit]
Cc1ccc(/C=C2/C(=O)ON=C2c2ccccc2)o1		inconclusive: 29.1 µM [cytotoxic, single point]
CC(C)(C)C(=O)c1sc(Nc2ccccc2)nc1N		inconclusive: 18.4 µM [cytotoxic, single point]
Cc1ccc(NC(=O)c2ccc(Nc3ccccc3F)nc2)cc1		inconclusive: 2.31 µM [rising, partial curve, poor fit]
O=C(NCc1nc2ccccc2[nH]1)C1=C[C@@H](c2ccccc2)C[C@@H](OCc2ccc(CO)cc2)O1	inactive: 0%	
CCCCNc1c(-c2cccc(OC)c2)nc2nc(C)cc(C)n12		inconclusive: 10.3 µM [cytotoxic, partial curve]
C[C@H]1CCC/C=C/[C@@H]2C[C@H](O)C[C@H]2[C@H](O)[C@H](S(=O)c2ccc(O)cc2)CC(=O)O1 (stereo partly specified)		inconclusive: 0.0065 µM [cytotoxic, full curve, poor fit]
COC(=O)/C(N=Nc1cccc(C(F)(F)F)c1)=C(\C)O		active: 5.8 µM
NC(=O)c1cc2ccc(O)cc2oc1=NCc1ccccc1	inactive: -3.61%	
CC(O)CO (stereo unspecified)	inconclusive: 12%	
O=C(N/N=C/c1ccc(-c2cccc([N+](=O)[O-])c2)o1)c1ccccc1O	inactive: -17.2%	
CCn1c(SCC(=O)Nc2ccc(F)cc2)nc2ccccc2c1=O	inactive: 8.7%	
CCOC(=O)N1CCN(C(=O)c2cn(C)c(=O)c3c2c2ccccc2n3C)CC1	inactive: 0%	
O=C(CN1CCCCC1)Nc1nnc(-c2ccccc2)s1		inconclusive: 20.6 µM [cytotoxic, single point]

Of the compounds above, these have a Cl atom.
Structure (SMILES)	activity change, negative = cytotoxicity	Potency
COc1cccc(N(CC(=O)NCCSc2ccc(Cl)cc2)S(C)(=O)=O)c1		active: 16.4 µM
C[C@@H]1CN([C@H](C)CO)C(=O)Cc2cc(NS(=O)(=O)c3ccc(Cl)cc3)ccc2O[C@H]1CN(C)Cc1ccc(C(F)(F)F)cc1		inconclusive: 29.1 µM [cytotoxic, single point]
Cc1ccc(NC(=O)c2ccc(NCCN)c([N+](=O)[O-])c2)cc1Cl		inconclusive: 29.1 µM [cytotoxic, partial curve, poor fit]

Continuation:

Structure (SMILES)	activity change, negative = cytotoxicity	Potency
COc1ccc(-c2cn(Cc3ccc(C(=O)NCc4ccc(C)cc4)cc3)c(C(C)N)n2)cc1 (stereo unspecified)	inactive: 3.37%	
COc1cccc(-c2ccc3nnc(SCC(=O)Nc4ccc(NC(C)=O)cc4)n3n2)c1	inactive: 19.5%	
Cn1c(=O)c2c(ncn2Cc2ccccc2)n(C)c1=O		inconclusive: 29.1 µM [cytotoxic, single point]
COc1c2ccccc2nc2ccccc12	inactive: -1.85%	
COc1ccccc1CN(C)CC(=O)Nc1cccc2ccccc12	inactive: -18.1%	
CCOc1ccccc1NC(=O)c1c(NC(=O)c2ccccc2)sc2c1CCCC2	inactive: -21.7%	
CCOC(=O)N1CCN(S(=O)(=O)c2ccc(C(=O)Nc3sc4c(c3C(=O)OC)CCN(C)C4)cc2)CC1		inconclusive: 25.9 µM [cytotoxic, partial curve, poor fit]
Cc1cc(OCCCCNC(C)C)cc(C(C)C)c1		active: 20.6 µM
CC(C)(C)c1ccc(-c2nc3cc(NC(=O)c4cccc(Br)c4)ccc3o2)cc1		inconclusive: 16.4 µM [rising, single point]
Cc1c(C(=O)Nc2ccc(F)cc2)c2ccccn2c1CCc1ccncc1		inconclusive: 1.46 µM [cytotoxic, full curve]
Cc1cc(=O)oc2c(C)c(OCC(=O)N3CCN(c4ccc(F)cc4)CC3)ccc12		inconclusive: 16.4 µM [cytotoxic, partial curve]
O=C(NCc1ccccn1)Nc1ccccc1		inconclusive: 29.1 µM [rising, single point]
CCO[C@H]1OC(C(=O)N2CCN(Cc3ccccc3)CC2)=C[C@@H](C2CCCCC2)[C@@H]1CCCO		inconclusive: 23.1 µM [cytotoxic, single point]
Cc1cccn2cc(CNS(=O)(=O)c3ccc4ccccc4c3)nc12	inactive: -26.9%	
O=C1CC2(CCN(C(=O)c3cccc(Cl)c3)CC2)Oc2ccccc21		inconclusive: 16.4 µM [cytotoxic, single point]
COc1cccc(C2c3cc4c(cc3OC(NNC(N)=O)C2C)OCO4)c1O (stereo unspecified)		active: 4.61 µM
Cc1ccc(CNC(=O)CCn2nc(-c3ccc(Cl)cc3)ccc2=O)cc1		active: 23.1 µM
O=C(CNC(c1ccccc1)c1ccccc1)Nc1c(F)cccc1F		inconclusive: 18.4 µM [cytotoxic, single point]
COC(=O)c1ccc(CNC(=O)c2ccc3oc(C(C)C)nc3c2)cc1		inconclusive: 23.1 µM [cytotoxic, single point]
CC(=O)NS(=O)(=O)c1ccc(NC(=O)c2ccccn2)cc1		inconclusive: 29.1 µM [rising, single point]
COc1ccc(-c2nnc3ccc(SCC(=O)N4CCN(c5ccccc5)CC4)nn23)cc1		inconclusive: 2.31 µM [cytotoxic, partial curve, poor fit]
CC(C)(C)c1ccc(C(=O)C[n+]2cc(Br)cc(Br)c2)cc1	inactive: -0.313%	
CCc1nc(N)nc(N)c1-c1ccc(N(C)Cc2ccccc2)c([N+](=O)[O-])c1		active: 1.84 µM
